# The other results are listed elsewhere or left out.
# Sequences of proteins named here, by UniProt entry; tags and fusion partners are left off. A change or cut given only in a name is not applied to a line headed by its entry.
# UniProt Q9P107: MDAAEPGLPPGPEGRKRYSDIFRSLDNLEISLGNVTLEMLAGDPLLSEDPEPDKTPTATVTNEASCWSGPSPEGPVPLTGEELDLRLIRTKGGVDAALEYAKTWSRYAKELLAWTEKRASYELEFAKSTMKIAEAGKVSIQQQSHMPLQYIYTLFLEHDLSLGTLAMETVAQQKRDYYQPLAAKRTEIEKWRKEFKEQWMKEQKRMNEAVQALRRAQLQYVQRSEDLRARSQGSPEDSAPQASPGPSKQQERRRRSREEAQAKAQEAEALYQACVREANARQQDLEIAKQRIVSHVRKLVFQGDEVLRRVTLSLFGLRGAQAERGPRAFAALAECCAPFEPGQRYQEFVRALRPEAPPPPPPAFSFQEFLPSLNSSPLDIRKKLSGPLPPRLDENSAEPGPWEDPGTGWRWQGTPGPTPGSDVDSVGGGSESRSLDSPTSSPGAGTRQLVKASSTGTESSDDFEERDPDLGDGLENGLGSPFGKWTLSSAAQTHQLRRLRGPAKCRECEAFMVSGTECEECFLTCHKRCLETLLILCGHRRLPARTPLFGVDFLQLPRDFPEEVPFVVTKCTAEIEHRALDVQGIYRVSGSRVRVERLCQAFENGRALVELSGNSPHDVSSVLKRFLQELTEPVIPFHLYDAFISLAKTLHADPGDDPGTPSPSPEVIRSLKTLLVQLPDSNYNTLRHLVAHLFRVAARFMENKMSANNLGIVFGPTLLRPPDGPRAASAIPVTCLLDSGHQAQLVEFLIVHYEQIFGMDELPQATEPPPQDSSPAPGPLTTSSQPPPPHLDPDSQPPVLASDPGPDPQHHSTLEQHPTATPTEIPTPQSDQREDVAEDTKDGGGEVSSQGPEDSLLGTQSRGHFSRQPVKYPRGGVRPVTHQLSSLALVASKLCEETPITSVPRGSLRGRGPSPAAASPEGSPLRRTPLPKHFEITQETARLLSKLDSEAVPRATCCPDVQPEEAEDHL
# UniProt P19440: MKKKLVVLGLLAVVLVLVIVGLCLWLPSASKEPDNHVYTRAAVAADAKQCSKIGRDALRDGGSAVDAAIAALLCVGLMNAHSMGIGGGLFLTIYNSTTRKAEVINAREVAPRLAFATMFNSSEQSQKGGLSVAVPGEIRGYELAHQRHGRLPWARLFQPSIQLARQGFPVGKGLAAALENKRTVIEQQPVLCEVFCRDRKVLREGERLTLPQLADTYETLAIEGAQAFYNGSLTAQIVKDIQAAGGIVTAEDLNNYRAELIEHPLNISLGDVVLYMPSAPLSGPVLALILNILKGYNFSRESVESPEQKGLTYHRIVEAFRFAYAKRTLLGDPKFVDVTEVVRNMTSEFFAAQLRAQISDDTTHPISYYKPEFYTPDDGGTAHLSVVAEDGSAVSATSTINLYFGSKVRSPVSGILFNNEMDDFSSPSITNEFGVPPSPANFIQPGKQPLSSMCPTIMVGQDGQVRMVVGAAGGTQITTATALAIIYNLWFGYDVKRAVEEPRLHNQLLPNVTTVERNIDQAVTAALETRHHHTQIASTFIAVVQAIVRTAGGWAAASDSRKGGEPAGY
# UniProt Q9UBU6: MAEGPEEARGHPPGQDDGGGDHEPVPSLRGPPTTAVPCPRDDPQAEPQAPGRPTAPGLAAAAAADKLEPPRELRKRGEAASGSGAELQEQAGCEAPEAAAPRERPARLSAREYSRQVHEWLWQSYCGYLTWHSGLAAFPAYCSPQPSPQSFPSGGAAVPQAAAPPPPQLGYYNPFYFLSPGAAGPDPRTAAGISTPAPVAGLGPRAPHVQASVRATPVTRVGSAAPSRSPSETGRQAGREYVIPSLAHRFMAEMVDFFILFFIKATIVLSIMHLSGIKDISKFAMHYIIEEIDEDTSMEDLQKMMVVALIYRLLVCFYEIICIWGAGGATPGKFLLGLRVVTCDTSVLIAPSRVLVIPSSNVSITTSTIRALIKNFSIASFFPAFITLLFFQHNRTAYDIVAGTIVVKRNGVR
# UniProt Q9UJY5: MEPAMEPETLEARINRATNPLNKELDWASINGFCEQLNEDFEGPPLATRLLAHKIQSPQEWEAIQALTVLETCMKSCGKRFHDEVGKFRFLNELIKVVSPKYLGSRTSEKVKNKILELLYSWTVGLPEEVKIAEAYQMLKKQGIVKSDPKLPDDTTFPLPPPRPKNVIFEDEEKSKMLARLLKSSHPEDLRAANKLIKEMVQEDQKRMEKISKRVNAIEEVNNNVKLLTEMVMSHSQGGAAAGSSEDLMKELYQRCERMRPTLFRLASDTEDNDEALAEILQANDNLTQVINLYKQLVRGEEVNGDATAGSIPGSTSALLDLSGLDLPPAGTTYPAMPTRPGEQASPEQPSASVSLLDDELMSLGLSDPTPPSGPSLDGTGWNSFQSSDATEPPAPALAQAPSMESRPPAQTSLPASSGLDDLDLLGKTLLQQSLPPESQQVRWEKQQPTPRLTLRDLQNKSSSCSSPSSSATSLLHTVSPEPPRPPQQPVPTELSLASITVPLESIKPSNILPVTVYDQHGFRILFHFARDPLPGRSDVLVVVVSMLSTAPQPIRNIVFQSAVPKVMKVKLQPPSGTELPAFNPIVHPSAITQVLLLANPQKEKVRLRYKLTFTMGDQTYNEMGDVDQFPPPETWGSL
# UniProt O94868: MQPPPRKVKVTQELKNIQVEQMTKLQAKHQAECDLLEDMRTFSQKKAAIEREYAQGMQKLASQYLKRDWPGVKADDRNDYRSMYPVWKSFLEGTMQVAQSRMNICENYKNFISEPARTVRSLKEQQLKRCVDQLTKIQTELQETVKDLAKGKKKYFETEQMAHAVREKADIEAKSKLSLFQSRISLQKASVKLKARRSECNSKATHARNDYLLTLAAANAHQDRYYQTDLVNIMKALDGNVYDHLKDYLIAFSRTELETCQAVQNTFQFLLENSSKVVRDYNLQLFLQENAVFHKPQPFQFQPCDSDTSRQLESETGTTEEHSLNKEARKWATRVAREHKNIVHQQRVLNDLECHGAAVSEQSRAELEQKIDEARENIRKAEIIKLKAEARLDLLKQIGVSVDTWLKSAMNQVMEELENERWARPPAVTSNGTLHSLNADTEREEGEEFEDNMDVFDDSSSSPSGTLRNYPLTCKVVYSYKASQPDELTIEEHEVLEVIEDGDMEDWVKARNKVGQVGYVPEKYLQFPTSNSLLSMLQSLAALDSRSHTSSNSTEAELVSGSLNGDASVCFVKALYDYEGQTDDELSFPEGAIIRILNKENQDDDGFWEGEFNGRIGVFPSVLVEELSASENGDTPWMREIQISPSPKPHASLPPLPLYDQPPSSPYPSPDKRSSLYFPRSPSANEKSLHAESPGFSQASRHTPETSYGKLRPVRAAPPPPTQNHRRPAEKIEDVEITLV
# UniProt P22570: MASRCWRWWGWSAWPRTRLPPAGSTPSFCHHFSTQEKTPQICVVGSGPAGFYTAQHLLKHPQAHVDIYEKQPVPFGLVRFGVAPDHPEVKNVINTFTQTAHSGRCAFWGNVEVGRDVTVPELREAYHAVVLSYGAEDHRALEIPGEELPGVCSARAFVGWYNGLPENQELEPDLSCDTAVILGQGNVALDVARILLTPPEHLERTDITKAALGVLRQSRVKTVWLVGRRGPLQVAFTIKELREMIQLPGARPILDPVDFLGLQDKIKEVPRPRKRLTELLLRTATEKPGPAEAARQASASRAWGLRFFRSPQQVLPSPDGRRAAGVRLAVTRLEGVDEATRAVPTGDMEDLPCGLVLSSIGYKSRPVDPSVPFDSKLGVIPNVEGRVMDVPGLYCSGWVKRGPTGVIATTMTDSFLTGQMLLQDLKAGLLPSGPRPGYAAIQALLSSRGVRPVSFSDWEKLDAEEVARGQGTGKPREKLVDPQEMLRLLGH
# UniProt Q86SX6: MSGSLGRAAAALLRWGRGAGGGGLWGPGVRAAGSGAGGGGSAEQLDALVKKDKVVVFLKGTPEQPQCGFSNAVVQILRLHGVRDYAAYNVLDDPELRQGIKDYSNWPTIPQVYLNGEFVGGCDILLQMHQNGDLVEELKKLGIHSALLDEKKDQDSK
# UniProt O76003: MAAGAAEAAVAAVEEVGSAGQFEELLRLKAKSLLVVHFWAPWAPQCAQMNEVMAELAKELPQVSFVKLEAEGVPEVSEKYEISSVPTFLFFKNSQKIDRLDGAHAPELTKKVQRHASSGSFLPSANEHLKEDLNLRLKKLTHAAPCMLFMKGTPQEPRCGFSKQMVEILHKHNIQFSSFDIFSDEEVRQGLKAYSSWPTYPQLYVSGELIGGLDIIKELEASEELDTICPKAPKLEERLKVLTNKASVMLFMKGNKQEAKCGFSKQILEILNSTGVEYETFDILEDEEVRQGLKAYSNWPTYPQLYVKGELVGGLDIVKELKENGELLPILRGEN
# UniProt P36915, whole entry: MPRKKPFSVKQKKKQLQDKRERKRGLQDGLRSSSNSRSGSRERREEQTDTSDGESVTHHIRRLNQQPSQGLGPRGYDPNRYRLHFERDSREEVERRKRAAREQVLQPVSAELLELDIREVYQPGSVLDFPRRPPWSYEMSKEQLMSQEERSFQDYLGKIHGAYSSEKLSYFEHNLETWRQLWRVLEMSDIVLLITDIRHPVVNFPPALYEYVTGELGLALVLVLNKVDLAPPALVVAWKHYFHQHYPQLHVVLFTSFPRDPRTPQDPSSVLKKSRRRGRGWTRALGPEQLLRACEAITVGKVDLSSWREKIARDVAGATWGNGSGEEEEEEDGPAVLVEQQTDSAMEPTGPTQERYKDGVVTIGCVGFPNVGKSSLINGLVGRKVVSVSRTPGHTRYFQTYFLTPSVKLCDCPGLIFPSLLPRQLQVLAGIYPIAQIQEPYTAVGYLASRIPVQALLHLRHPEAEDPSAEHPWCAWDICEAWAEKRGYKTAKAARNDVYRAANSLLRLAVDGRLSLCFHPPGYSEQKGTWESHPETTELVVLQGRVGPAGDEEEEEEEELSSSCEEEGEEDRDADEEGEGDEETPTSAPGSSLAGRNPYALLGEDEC
# UniProt Q9H840: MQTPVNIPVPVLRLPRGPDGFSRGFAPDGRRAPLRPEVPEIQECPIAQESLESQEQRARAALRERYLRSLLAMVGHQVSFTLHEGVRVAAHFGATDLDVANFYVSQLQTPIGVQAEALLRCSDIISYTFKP
# UniProt Q92820: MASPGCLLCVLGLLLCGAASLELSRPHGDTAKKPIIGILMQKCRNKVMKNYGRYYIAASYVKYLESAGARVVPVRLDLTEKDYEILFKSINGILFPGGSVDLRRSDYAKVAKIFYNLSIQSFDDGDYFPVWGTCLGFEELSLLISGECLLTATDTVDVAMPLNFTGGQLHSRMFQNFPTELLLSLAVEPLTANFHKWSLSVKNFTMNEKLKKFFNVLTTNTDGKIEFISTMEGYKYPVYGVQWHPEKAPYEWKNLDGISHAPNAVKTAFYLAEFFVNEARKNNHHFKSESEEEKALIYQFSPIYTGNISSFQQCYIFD
# UniProt Q9H2C0: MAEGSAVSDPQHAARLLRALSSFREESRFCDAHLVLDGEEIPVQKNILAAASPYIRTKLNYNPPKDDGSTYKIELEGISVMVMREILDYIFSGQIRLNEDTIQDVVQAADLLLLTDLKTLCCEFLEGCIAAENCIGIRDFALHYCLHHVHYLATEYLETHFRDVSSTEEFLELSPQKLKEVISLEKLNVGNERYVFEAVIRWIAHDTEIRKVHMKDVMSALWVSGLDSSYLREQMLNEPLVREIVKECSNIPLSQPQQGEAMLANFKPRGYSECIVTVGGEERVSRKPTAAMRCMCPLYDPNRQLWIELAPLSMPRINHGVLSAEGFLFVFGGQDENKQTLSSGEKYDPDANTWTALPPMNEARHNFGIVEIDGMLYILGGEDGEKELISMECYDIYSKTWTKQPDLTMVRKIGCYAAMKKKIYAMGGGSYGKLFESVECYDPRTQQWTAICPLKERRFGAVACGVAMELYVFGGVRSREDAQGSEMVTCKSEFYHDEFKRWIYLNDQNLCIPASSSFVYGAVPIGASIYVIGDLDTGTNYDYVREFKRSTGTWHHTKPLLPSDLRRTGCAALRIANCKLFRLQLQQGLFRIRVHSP
# UniProt Q04760: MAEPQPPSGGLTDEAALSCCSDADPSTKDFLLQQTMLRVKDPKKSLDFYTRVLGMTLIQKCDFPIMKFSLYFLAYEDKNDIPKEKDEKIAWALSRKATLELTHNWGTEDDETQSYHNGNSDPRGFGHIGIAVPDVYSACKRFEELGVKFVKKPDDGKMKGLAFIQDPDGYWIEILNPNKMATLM
# UniProt Q14376: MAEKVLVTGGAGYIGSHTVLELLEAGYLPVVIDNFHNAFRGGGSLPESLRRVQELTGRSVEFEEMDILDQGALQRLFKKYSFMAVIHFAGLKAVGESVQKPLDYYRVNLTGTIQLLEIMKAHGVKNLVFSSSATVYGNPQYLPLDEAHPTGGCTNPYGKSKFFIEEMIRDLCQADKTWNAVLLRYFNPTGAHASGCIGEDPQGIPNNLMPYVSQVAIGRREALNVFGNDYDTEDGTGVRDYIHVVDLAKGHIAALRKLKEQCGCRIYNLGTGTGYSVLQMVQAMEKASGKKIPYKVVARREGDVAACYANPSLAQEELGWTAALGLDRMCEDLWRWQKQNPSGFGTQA
# Compound: COc1ccc(Cn2ccc3cc(C)c(C(=O)NO)cc32)cc1
# Assay: dose-dependent thermal stabilisation call (2D-TPP, DLPTP, 10% FDR) (binary (1 = stabilised)); higher = stabilised by the compound
# Settings: system: HL-60 intact cells; concentration range 0.04-10 µM
# Method: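 2D thermal proteome profiling in intact HL-60 cells treated with BRD-3811 (0, 0.04, 0.29, 2, 10 uM) for 90 min at 37 C, then heated 3 min at one of 12 temperatures (42-63.9 C). Soluble protein was quantified by TMT10 MS. The value is the DLPTP call of the paper: dose-dependent thermal stabilisation over all temperatures at 10% FDR (F-test of a dose-response against a flat model); one experiment, one call per tested protein.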
row,Target,dose-dependent thermal stabilisation call
1,GMFG (UniProt O60234),inactive: 0
2,GABARAPL1 (UniProt Q9H0R8),inactive: 0
3,FTL (UniProt P02792),inactive: 0
4,FBXL20 (UniProt Q96IG2),inactive: 0
5,GMIP (UniProt Q9P107),inactive: 0
6,GGT1 (UniProt P19440),inactive: 0
7,GABARAPL2 (UniProt P60520),inactive: 0
8,FARS2 (UniProt O95363),inactive: 0
9,FAM8A1 (UniProt Q9UBU6),inactive: 0
10,FOSL2 (UniProt P15408),inactive: 0
11,FOXK2 (UniProt Q01167),inactive: 0
12,GALT (UniProt P07902),inactive: 0
13,GGA1 (UniProt Q9UJY5),inactive: 0
14,FOXK1 (UniProt P85037),inactive: 0
15,FKBPL (UniProt Q9UIM3),inactive: 0
16,FCHSD2 (UniProt O94868),inactive: 0
17,FDXR (UniProt P22570),inactive: 0
18,GEMIN4 (UniProt P57678),inactive: 0
19,GLRX5 (UniProt Q86SX6),inactive: 0
20,FN3KRP (UniProt Q9HA64),inactive: 0

row,Target,dose-dependent thermal stabilisation call
1,FAM98C (UniProt Q17RN3),inactive: 0
2,GFM1 (UniProt Q96RP9),inactive: 0
3,GCOM1,inactive: 0
4,FBXO9 (UniProt Q9UK97),inactive: 0
5,FBXL8 (UniProt Q96CD0),inactive: 0
6,FAM54B (UniProt Q9H019),inactive: 0
7,GCLC (UniProt P48506),inactive: 0
8,GLRX3 (UniProt O76003),inactive: 0
9,GNAI3 (UniProt P08754),inactive: 0
10,GDI2 (UniProt P50395),inactive: 0
11,GNL1 (UniProt P36915),inactive: 0
12,GEMIN7 (UniProt Q9H840),inactive: 0
13,GGH (UniProt Q92820),inactive: 0
14,GMPPA (UniProt Q96IJ6),inactive: 0
15,GAN (UniProt Q9H2C0),inactive: 0
16,FOXRED1 (UniProt Q96CU9),inactive: 0
17,GLO1 (UniProt Q04760),inactive: 0
18,FBXO7 (UniProt Q9Y3I1),inactive: 0
19,FBXO28 (UniProt Q9NVF7),inactive: 0
20,GALE (UniProt Q14376),inactive: 0

# Retrieved one by one from the entries so far, two records:
row,Target,dose-dependent thermal stabilisation call
13,GGA1 (UniProt Q9UJY5),inactive: 0
16,FOXRED1 (UniProt Q96CU9),inactive: 0

# Source: the supplement of paper PMC7666118
